The list shows a part of the results. Repeats are few or missing, and single values can be far off.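 Imaging used 1,536-well plates; nuclei positive for cleaved PARP by antibody were divided by total DNA-stained nuclei to yield the apoptosis fraction. Doses for screening kept most cells viable, and cell lines differ markedly in resting and induced cleaved-PARP levels.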
system: COLO792; assay: cleaved PARP positive nuclei fraction relative to DMSO control; melanoma cells; higher = more apoptosis; conditions: library dose: low library concentration; 72 h

Structure (SMILES)	cleaved PARP positive nuclei fraction [%]
CC(=O)O[C@@]12CO[C@@H]1C[C@H](O)[C@@]1(C)C(=O)[C@H](O)C3=C(C)[C@@H](OC(=O)[C@H](O)[C@@H](NC(=O)OC(C)(C)C)c4ccccc4)C[C@@](O)([C@@H](OC(=O)c4ccccc4)[C@H]21)C3(C)C [Docetaxel] + C/C(O)=C(\C#N)C(=O)Nc1cc(Br)ccc1Br [LFM-A13] (first compound 0.0001 µM, partner dose 2 µM)	470
C[C@]12O[C@H](C[C@]1(O)CO)n1c3ccccc3c3c4c(c5c6ccccc6n2c5c31)CNC4=O [Lestaurtinib] + Cc1nc(Nc2ncc(C(=O)Nc3c(C)cccc3Cl)s2)cc(N2CCN(CCO)CC2)n1 [dasatanib] (first compound 0.004 µM, partner dose 0.004 µM)	141
C[C@]12O[C@H](C[C@]1(O)CO)n1c3ccccc3c3c4c(c5c6ccccc6n2c5c31)CNC4=O [Lestaurtinib] + CCc1ccc(CCOc2ccc(CC3SC(=O)NC3=O)cc2)nc1 [pioglitazone] (first compound 0.004 µM, partner dose 2 µM)	67.4
C[As](C)SC[C@H](NC(=O)CC[C@H](N)C(=O)O)C(=O)NCC(=O)O [Darinaparsin] + Cn1cc(/C=C2\C(=O)Nc3cccnc32)c2ccccc21 [GW441756] (first compound 0.4 µM, partner dose 0.4 µM)	83.3
O=C(CCCCCCC(=O)Nc1ccccc1)NO [vorinostat] + O=C(Oc1ccc([N+](=O)[O-])cc1)N1CCC(C(O)(c2ccc3c(c2)OCO3)c2ccc3c(c2)OCO3)CC1 [JZL184] (first compound 0.08 µM, partner dose 1 µM)	126

Reference: the supplement of paper PMC4604168 (melanoma cell lines)
